The other results are listed elsewhere or left out. Cut-off read from the data, not from the text of the source: active = 150% or more and inactive = the rest. Repeats are few or missing, and single values can be far off.
System: Staphylococcus aureus JE2-lux inside RAW 264.7 macrophages
Assay: intracellular bacterial bioluminescence relative to DMSO vehicle; higher = higher intracellular bacterial metabolic activity
Conditions: 10 µM; treatment time 4 h; gentamicin 50 µg/ml

Intracellular bacterial bioluminescence, inactive:
COc1ccc(CCNC(=O)Cc2cc(=O)[nH]c(=O)[nH]2)cc1OC 120%
Cc1cc(-c2cncnc2C2CCN(C(=O)c3cn(C)nc3C)CC2)on1 108%
COc1ccc(NC(=O)CN2C(=O)N(C)N(C)c3ncccc32)cc1OC 94.9%
COc1ccc(C2=C(C)C(N3CCC(C(=O)NCCC(C)C)CC3)=NS2(=O)=O)cc1 93.6%
COc1ccc(-c2cn3c(C)c(C(=O)N4CCN(Cc5ccccc5)CC4)sc3n2)cc1 102%
Cc1cccn2c(=O)nc(SCc3ccc(F)cc3)nc12 73.1%
COc1ccc(-c2cc(-c3ccccc3)nc(SCC(=O)Nc3nccs3)c2C#N)cc1 109%
CC(c1ccccc1)N1CCn2c(nc3ccccc32)C1 (stereo not given) 82.8%
Cc1c(Cl)cccc1S(=O)(=O)N1CCN(c2cc(C)c3c(C)nn(-c4ccccc4)c3n2)CC1 108%
COc1ccc(Cl)c2sc(NC(=O)CN3C(=O)c4ccccc4C3=O)nc12 6.22%
COc1cccc(OCc2nnc(SCC(=O)Nc3cc(C)on3)n2C)c1 44.1%
CN(C)c1ncc(C(=O)NC(c2ccccc2)c2cccnc2)cn1 (stereo not given) 118%
CS(=O)(=O)c1ccc(CC(=O)Nc2ccc3ncsc3c2)cc1 16.1%
COc1ccc(N2CCN(CCNc3ncnc4scc(-c5ccc(Cl)cc5)c34)CC2)cc1 46.5%
CC(=O)c1cccc(NC(=O)c2csc3nc(-c4ccc(F)cc4)cn23)c1 82.6%
COc1ccc(C2CC(=O)Nc3c2c(C)nn3-c2nc3ccccc3[nH]2)cc1Br (stereo not given) 81.3%
CS(=O)(=O)c1ccc(Sc2nc3ccccc3s2)c([N+](=O)[O-])c1 63.8%
CSc1nc2ccc(NC(=O)Nc3cccc(Cl)c3)cc2s1 103%
COc1cc(OC)c(NC(=O)c2sc3nc(C)nc(N4CCCC4)c3c2C)cc1Cl 105%
CN(C1CCCCC1)S(=O)(=O)c1ccc(C(=O)Nc2sccc2C(N)=O)cc1 98.6%
CCOC(=O)c1cc(C#N)c(SCC(=O)Nc2ccc(C(C)=O)cc2)nc1O 129%
COc1ccc(NC(=O)CSc2nc(-c3ccccc3)c3ccccc3n2)c(OC)c1 76.6%
COC(=O)c1ccc2c(=O)[nH]c3c(C(=O)N4CCOCC4)sc(=S)n3c2c1 85%
COCCNC(=O)c1c(O)nc2sccn2c1=O 120%
O=C(CN1C(=O)/C(=C/c2cccc(Cl)c2)SC1=S)Nc1ccc2oc(=O)ccc2c1 114%

Part of the list above in order of length of the SMILES, falling.
Intracellular bacterial bioluminescence, inactive:
CC(=O)c1cccc(NC(=O)c2csc3nc(-c4ccc(F)cc4)cn23)c1 82.6%
COc1ccc(CCNC(=O)Cc2cc(=O)[nH]c(=O)[nH]2)cc1OC 120%
CS(=O)(=O)c1ccc(CC(=O)Nc2ccc3ncsc3c2)cc1 16.1%

From the supplement of paper PMC12578635
